Measured values taken from PMC7289602, “Measuring ligand-cell surface receptor affinities with axial line-scanning fluorescence correlation spectroscopy” (eLife, 2020).
No constants are given. Whether binding was seen depends on the method and setting.

Sequences of proteins named here, by UniProt entry; tags and fusion partners are left off. Residues count along the entry.
UniProt O75581, residues 20-1613: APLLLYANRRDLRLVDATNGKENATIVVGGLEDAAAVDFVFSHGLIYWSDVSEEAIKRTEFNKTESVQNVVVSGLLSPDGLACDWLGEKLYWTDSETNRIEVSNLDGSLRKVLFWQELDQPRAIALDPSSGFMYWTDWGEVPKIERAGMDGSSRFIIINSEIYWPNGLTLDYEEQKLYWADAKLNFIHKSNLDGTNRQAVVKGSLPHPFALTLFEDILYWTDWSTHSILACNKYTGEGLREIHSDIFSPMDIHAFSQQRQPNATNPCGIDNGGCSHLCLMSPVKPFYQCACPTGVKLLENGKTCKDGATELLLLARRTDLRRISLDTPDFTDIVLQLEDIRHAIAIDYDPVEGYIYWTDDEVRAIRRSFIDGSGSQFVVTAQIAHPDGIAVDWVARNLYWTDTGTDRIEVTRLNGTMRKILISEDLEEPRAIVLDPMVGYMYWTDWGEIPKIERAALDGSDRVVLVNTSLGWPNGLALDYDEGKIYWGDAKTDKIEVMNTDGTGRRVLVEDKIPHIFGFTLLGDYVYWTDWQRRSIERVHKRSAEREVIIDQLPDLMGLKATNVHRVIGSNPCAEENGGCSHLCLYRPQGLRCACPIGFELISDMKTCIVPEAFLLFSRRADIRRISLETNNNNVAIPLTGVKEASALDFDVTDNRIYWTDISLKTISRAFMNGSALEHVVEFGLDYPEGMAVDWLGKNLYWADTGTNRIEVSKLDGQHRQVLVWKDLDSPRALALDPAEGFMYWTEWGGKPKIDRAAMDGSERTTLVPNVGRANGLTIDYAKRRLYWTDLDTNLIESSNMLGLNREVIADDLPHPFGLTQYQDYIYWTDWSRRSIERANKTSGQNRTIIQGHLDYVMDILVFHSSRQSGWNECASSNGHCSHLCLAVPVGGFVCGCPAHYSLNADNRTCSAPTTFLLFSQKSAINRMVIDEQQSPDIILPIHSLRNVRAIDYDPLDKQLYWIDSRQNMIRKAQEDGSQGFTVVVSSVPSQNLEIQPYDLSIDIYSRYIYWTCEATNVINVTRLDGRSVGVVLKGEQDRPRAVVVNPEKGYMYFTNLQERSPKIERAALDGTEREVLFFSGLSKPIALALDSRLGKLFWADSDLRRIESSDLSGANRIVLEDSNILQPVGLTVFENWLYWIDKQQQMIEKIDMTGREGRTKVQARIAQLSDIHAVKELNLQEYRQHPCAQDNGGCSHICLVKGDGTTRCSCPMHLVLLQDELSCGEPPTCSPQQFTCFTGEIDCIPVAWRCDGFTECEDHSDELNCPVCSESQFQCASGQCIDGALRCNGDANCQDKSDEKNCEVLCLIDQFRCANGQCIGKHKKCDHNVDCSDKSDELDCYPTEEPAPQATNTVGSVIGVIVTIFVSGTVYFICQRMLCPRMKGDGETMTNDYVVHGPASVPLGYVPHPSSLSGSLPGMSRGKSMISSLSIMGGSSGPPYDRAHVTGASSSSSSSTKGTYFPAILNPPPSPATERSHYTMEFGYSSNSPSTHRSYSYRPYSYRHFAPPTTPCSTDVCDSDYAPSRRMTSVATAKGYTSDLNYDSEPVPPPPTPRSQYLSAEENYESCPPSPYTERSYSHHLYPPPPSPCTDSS
UniProt P17677, residues 1-20: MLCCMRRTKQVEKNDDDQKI

Molecular target: LRP6-mCherry, transiently expressed in HEK293T cells (human) (UniProt O75581)
Experiment: dual-color axial line-scanning fluorescence cross-correlation spectroscopy (axial lsFCS); control: live HEK293T cells transiently co-expressing LRP6-mCherry and Mem-eGFP, at least nine measurements of 60 s

- binding: no binding
Substance: Mem-eGFP (membrane marker peptide, the 20 N-terminal residues of neuromodulin, fused to eGFP) (from UniProt P17677 1-20)
